Percent effect of library compounds

The chains behind the UniProt entries cited, without tags or fusion partners. Residues count along the entry.
UniProt A4I591, 1-473: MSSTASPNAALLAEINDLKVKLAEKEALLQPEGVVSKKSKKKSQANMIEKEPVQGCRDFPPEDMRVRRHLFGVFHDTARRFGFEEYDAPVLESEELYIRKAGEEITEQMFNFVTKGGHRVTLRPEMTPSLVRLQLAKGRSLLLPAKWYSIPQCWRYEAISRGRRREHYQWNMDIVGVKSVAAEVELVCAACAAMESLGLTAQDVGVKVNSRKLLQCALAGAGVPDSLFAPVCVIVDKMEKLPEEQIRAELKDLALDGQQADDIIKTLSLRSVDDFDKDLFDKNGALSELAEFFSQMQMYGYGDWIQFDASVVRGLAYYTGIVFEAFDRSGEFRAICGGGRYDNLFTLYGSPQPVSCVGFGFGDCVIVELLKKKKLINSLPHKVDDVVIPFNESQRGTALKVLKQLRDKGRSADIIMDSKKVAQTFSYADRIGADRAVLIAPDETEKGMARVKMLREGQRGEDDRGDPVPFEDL
UniProt Q4DA54, 1-478: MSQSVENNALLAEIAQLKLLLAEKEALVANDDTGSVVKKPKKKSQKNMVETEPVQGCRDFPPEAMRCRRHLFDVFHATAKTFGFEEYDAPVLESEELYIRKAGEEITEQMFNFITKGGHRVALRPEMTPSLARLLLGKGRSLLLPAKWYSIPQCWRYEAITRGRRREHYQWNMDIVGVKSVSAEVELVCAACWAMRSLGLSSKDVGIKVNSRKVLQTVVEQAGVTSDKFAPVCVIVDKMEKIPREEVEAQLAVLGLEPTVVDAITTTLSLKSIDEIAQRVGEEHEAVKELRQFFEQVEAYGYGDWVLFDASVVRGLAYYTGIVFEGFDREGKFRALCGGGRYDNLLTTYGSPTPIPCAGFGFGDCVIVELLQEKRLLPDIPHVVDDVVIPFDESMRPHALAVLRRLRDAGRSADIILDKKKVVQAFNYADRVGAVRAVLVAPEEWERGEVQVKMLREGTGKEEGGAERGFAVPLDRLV
UniProt P9WPC5, whole entry: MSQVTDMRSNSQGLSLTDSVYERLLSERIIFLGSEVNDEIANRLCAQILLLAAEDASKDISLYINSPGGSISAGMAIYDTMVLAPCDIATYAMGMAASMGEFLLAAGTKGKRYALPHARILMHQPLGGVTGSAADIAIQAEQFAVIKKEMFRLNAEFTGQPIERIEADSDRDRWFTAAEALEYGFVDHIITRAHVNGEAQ
UniProt P9WPC3, whole entry partner: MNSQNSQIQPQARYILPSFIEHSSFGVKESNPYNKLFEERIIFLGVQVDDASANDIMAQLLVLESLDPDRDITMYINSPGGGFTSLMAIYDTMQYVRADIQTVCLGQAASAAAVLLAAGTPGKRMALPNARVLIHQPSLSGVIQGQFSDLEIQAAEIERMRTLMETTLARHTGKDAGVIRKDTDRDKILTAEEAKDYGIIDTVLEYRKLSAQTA

LiHisRS: 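Enzyme assay of histidyl-tRNA synthetase; the read-out is not stated. Target: Histidine-tRNA ligase, Leishmania infantum (UniProt A4I591). Compounds at 30 µM. Higher reads as stronger inhibition (inferred: compounds with an IC50 in retests scored well above the rest). The assay is labelled LdHisRS but filed under L. infantum. Size under these conditions: about 69,000 compounds, about 410 of them at 50% or above in at least one test.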
TcHisRS: 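Histidine-tRNA ligase, Trypanosoma cruzi CL Brener (UniProt Q4DA54). Enzyme assay of histidyl-tRNA synthetase; the read-out is not stated. Concentration: 30 µM. Direction is inferred from retests: higher values go with stronger inhibition. About 69,000 compounds were tested under these conditions; 0.045% (about 31) showed 50% or more at least once.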
ClpP1P2: 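Protease assay of ClpP1P2, read by the AMC dye that it sets free. Target: ClpP1P2, Mycobacterium tuberculosis (UniProt P9WPC5 and UniProt P9WPC3). Tested at 50 µM. Direction is inferred from only a few compounds that gave an IC50; most scored high, so higher reads as stronger inhibition. Most other retested compounds had strongly negative values. Size under these conditions: about 69,000 compounds, about 10 of them at 50% or above in at least one test.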

Values are the deposited “Percent Effect”, in %.
The controls that fix the scale are not given in the record; negative values are as filed.
This is an unselected part of the compounds tested.

* Cc1nnc(N2CCCC3(CN(c4cccc(F)c4)CCO3)C2)o1 (stereo not shown) | LiHisRS: 18.58%; TcHisRS: 7.527%; ClpP1P2: 14.4%
* COc1cc(NC2CCN(C3CCS(=O)(=O)CC3)CC2)ncn1 | LiHisRS: 25.3%; TcHisRS: 8.537%; ClpP1P2: 1.146%
* Fc1cnc(N2CC[C@@H](N3CCOCC3)[C@@H]2Cc2ccccc2)nc1 | LiHisRS: 0.8403%; TcHisRS: 3.922%; ClpP1P2: 1.379%
* COc1cc(CNCCNC(=O)c2ccc(O)cc2)ccc1SC | LiHisRS: 11.11%; TcHisRS: 13.55%; ClpP1P2: 8.978%
* Cc1occc1C(=O)N1CCO[C@H]2[C@@H](Oc3ccccn3)CC[C@@H]21 | LiHisRS: 3.65%; TcHisRS: 7.104%; ClpP1P2: 10.57%
* CC(C)n1ccnc1CN1CCOC(C)(C(=O)N2CCOCC2)C1 (stereo not shown) | LiHisRS: 14.43%; TcHisRS: 7.778%; ClpP1P2: 1.522%
* NCCn1nc(C2CCN(Cc3ccccc3Cl)C2)c2nccnc21 (stereo not shown) | LiHisRS: 22%; TcHisRS: 26.22%; ClpP1P2: -11.51%
* CC(C)N(CCS(C)(=O)=O)Cc1csc(-c2ccccc2F)n1 | LiHisRS: 6.383%; TcHisRS: 1.734%; ClpP1P2: -14%
* Cn1cc(CCC(=O)N2C[C@H]3CC[C@@H]2CN(Cc2ccccc2)C3)cn1 | LiHisRS: 18.27%; TcHisRS: 1.626%; ClpP1P2: -4.208%
* CCN(CC)CC[C@H]1CN(C(=O)c2ccc(F)cc2)CC[C@H]1CC(=O)O | LiHisRS: 22.22%; TcHisRS: 15.84%; ClpP1P2: -12.75%
* CCc1noc(C(C)N2CCN(Cc3noc(C)n3)CC2)n1 (stereo not shown) | LiHisRS: 10.4%; TcHisRS: -2.662%; ClpP1P2: 26.71%
* COc1cccc(CNC(=O)c2cc(C)nc(N3CCCCC3)n2)c1 | LiHisRS: 33.93%; TcHisRS: 4.386%; ClpP1P2: -5.287%
* Cc1ccc(C(=O)NCCCN2CCOCC2)c(Cl)c1 | LiHisRS: 12.26%; TcHisRS: 0%; ClpP1P2: -9.355%
* CN(Cc1ccccn1)C(=O)CNC(=O)N1CCc2ccccc2C1 | LiHisRS: 2.174%; TcHisRS: 3.96%; ClpP1P2: -1.957%
* CSCC[C@H](NC(=O)N1CCC(Cc2ccccc2)CC1)C(=O)O | LiHisRS: 10%; TcHisRS: 2.484%; ClpP1P2: -5.236%
* CN(C)c1nccc(C2CN(C(=O)CO)C2)n1 | LiHisRS: 11.72%; TcHisRS: 3.802%; ClpP1P2: -9.781%
* Cc1cc(CCC(=O)N2CCC(O)CC2)ccc1Br | LiHisRS: 10.96%; TcHisRS: 2.105%; ClpP1P2: -5.774%
* CCOc1ncccc1NC(=O)c1cc(C)sc1C | LiHisRS: 18.52%; TcHisRS: 2.232%; ClpP1P2: -13.75%
* Cc1cc(-c2ccc(=O)n(C3CCN(S(C)(=O)=O)CC3)n2)c(C)o1 | LiHisRS: 9.859%; TcHisRS: 3.077%; ClpP1P2: 10.57%
* CCc1nnc(NC(=O)Cc2c(C)nc(C)[nH]c2=O)s1 | LiHisRS: 16.51%; TcHisRS: 1.765%; ClpP1P2: -29.52%
* Cc1cc(NC(=O)CC2(Cn3cnnn3)CCCCC2)nn1C | LiHisRS: 18.42%; TcHisRS: 1.22%; ClpP1P2: -5.462%
* O=C(Nc1ccccc1)[C@H]1O[C@H](CCN2CCCCC2)CC[C@@H]1O | LiHisRS: 13.51%; TcHisRS: 4.478%; ClpP1P2: -7.167%
* Cc1ccc(CN2CC[C@@H](N(C)C(C)C)[C@@H]2Cc2ccccc2)o1 | LiHisRS: 17.24%; TcHisRS: 3.797%; ClpP1P2: -1.167%
* CC(C)n1ccc2cc(C(=O)Nc3nc[nH]n3)ccc21 | LiHisRS: 15.79%; TcHisRS: 4.878%; ClpP1P2: -13.52%
* CCC(C)N(C)S(=O)(=O)c1ccc(CCNC(C)=O)s1 (stereo not shown) | LiHisRS: 8.654%; TcHisRS: 2.439%; ClpP1P2: -3.95%
* Cn1cnnc1C1CCCN(C(=O)c2cc(-c3ccccc3)on2)C1 (stereo not shown) | LiHisRS: 14.29%; TcHisRS: 12.87%; ClpP1P2: 9.379%
* CC(=O)N1CCCCC[C@@H]2[C@@H]1[C@H](c1cccc(F)c1)CN2C(=O)C1CC1 | LiHisRS: 11.59%; TcHisRS: 3.788%; ClpP1P2: 10.65%
* O=C(Nc1cnn(Cc2ccccc2)c1)N1CCN(CCO)CC1 | LiHisRS: 28.74%; TcHisRS: 5.155%; ClpP1P2: -2.54%
* Cc1noc(C2CCCN(C(=O)c3cncc(Br)c3)C2)n1 (stereo not shown) | LiHisRS: -1.653%; TcHisRS: -2.521%; ClpP1P2: -7.849%
* Cn1c(NCC(O)c2ccccc2F)c(C#N)c(=O)n(C)c1=O (stereo not shown) | LiHisRS: 13.56%; TcHisRS: 6.286%; ClpP1P2: -9.436%
* CC(C)NC(=O)N1CCC2(CC(=O)N(c3ccccc3)C2)C1 (stereo not shown) | LiHisRS: 5.455%; TcHisRS: 7.438%; ClpP1P2: 15.66%
* COC(=O)CC(NC(=O)CCCn1cccn1)c1ccc(Cl)cc1 (stereo not shown) | LiHisRS: -2.381%; TcHisRS: 0%; ClpP1P2: -4.611%
* N#Cc1ccc(OC2CCN(C(=O)Cc3cccs3)CC2)nc1 | LiHisRS: 6.612%; TcHisRS: -2.041%; ClpP1P2: -9.965%
* CCn1cc(CN2CCC(O)(Cn3ccc4ncccc43)CC2)cn1 | LiHisRS: 7.292%; TcHisRS: 6.383%; ClpP1P2: 1.274%
* O=C(Cn1cccnc1=O)NCC1Cc2ccccc2O1 (stereo not shown) | LiHisRS: 21.92%; TcHisRS: -2.105%; ClpP1P2: 2.966%
* Cc1ccc(CC(NC(=O)CCS(C)(=O)=O)c2ccccn2)cc1 (stereo not shown) | LiHisRS: 12.9%; TcHisRS: 6.122%; ClpP1P2: -6.662%

2 of the entries, repeated:

compound,LiHisRS,TcHisRS,ClpP1P2
NCCn1nc(C2CCN(Cc3ccccc3Cl)C2)c2nccnc21 (stereo not shown),22,26.22,-11.51
Cc1occc1C(=O)N1CCO[C@H]2[C@@H](Oc3ccccn3)CC[C@@H]21,3.65,7.104,10.57

The values are deposited in ChEMBL (CHEMBL3988442, “University of Dundee, Small-Polar-MMV Screening Library” (2021)).